No constants are given. Whether binding was seen depends on the method and setting. In cells and extracts the contact can be indirect. A yes stands for co-enrichment or nearness to the bait. Other partners may have been found. Sequences can lack the tags named with a protein.
T1: Ref2, TAPS-tagged (native CPF/APT subunit) (yeast) (UniProt P42073)
T1 sequence: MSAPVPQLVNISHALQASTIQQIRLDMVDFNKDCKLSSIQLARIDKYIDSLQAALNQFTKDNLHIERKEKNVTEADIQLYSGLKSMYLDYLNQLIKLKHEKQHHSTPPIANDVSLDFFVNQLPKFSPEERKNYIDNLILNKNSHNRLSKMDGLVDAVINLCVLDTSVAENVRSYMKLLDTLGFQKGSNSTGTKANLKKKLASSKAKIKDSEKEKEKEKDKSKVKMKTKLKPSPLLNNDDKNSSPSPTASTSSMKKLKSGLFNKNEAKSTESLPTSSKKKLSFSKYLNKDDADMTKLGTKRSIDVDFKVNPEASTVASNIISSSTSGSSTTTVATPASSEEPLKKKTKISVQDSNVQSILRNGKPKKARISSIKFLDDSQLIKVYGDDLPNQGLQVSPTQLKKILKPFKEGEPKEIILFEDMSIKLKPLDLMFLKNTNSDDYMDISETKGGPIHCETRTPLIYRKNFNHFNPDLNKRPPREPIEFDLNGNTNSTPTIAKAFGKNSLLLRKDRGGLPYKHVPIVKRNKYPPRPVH

B1: Ysh1 (native CPF subunit) (enzyme, UniProt Q06224 1-779)
chain: MERTNTTTFKFFSLGGSNEVGRSCHILQYKGKTVMLDAGIHPAYQGLASLPFYDEFDLSKVDILLISHFHLDHAASLPYVMQRTNFQGRVFMTHPTKAIYRWLLRDFVRVTSIGSSSSSMGTKDEGLFSDEDLVDSFDKIETVDYHSTVDVNGIKFTAFHAGHVLGAAMFQIEIAGLRVLFTGDYSREVDRHLNSAEVPPLSSNVLIVESTFGTATHEPRLNRERKLTQLIHSTVMRGGRVLLPVFALGRAQEIMLILDEYWSQHADELGGGQVPIFYASNLAKKCMSVFQTYVNMMNDDIRKKFRDSQTNPFIFKNISYLRNLEDFQDFGPSVMLASPGMLQSGLSRDLLERWCPEDKNLVLITGYSIEGTMAKFIMLEPDTIPSINNPEITIPRRCQVEEISFAAHVDFQENLEFIEKISAPNIILVHGEANPMGRLKSALLSNFASLKGTDNEVHVFNPRNCVEVDLEFQGVKVAKAVGNIVNEIYKEENVEIKEEIAAKIEPIKEENEDNLDSQAEKGLVDEEEHKDIVVSGILVSDDKNFELDFLSLSDLREHHPDLSTTILRERQSVRVNCKKELIYWHILQMFGEAEVLQDDDRVTNQEPKVKEESKDNLTNTGKLILQIMGDIKLTIVNTLAVVEWTQDLMNDTVADSIIAILMNVDSAPASVKLSSHSCDDHDHNNVQSNAQGKIDEVERVKQISRLFKEQFGDCFTLFLNKDEYASNKEETITGVVTIGKSTAKIDFNNMKILECNSNPLKGRVESLLNIGGNLVTPLC
B2: Cft1 (native CPF subunit) (protein, UniProt Q06632 1-1357)
chain: MNVYDDVLDATVVSHSLATHFTTSDYEELLVVRTNILSVYRPTRDGKLYLTDEFKFHGLITDIGLIPQKDSPLSCLLLCTGVAKISILKFNTLTNSIDTLSLHYYEGKFKGKSLVELAKISTLRMDPGSSCALLFNNDIIAFLPFHVNKNDDDEEEEDEDENIDDSELIHSMNQKSQGTNTFNKRKRTKLGDKFTAPSVVLVASELYEGAKNIIDIQFLKNFTKPTIALLYQPKLVWAGNTTISKLPTQYVILTLNIQPAESATKIESTTIAFVKELPWDLHTIVPVSNGAIIVGTNELAFLDNTGVLQSTVLLNSFADKELQKTKIINNSSLEIMFREKNTTSIWIPSSKSKNGGSNNDETLLLMDLKSNIYYIQMEAEGRLLIKFDIFKLPIVNDLLKENSNPKCITRLNATNSNKNMDLFIGFGSGNALVLRLNNLKSTIETREAHNPSSGTNSLMDINDDDDEEMDDLYADEAPENGLTTNDSKGTVETVQPFDIELLSSLRNVGPITSLTVGKVSSIDDVVKGLPNPNKNEYSLVATSGNGSGSHLTVIQTSVQPEIELALKFISITQIWNLKIKGRDRYLITTDSTKSRSDIYESDNNFKLHKGGRLRRDATTVYISMFGEEKRIIQVTTNHLYLYDTHFRRLTTIKFDYEVIHVSVMDPYILVTVSRGDIKIFELEEKNKRKLLKVDLPEILNEMVITSGLILKSNMCNEFLIGLSKSQEEQLLFTFVTADNQIIFFTKDHNDRIFQLNGVDQLNESLYISTYQLGDEIVPDPSIKQVMINKLGHDNKEEYLTILTFGGEIYQYRKLPQRRSRFYRNVTRNDLAITGAPDNAYAKGVSSIERIMHYFPDYNGYSVIFVTGSVPYILIKEDDSTPKIFKFGNIPLVSVTPWSERSVMCVDDIKNARVYTLTTDNMYYGNKLPLKQIKISNVLDDYKTLQKLVYHERAQLFLVSYCKRVPYEALGEDGEKVIGYDENVPHAEGFQSGILLINPKSWKVIDKIDFPKNSVVNEMRSSMIQINSKTKRKREYIIAGVANATTEDTPPTGAFHIYDVIEVVPEPGKPDTNYKLKEIFQEEVSGTVSTVCEVSGRFMISQSQKVLVRDIQEDNSVIPVAFLDIPVFVTDSKSFGNLLIIGDAMQGFQFIGFDAEPYRMISLGRSMSKFQTMSLEFLVNGGDMYFAATDADRNVHVLKYAPDEPNSLSGQRLVHCSSFTLHSTNSCMMLLPRNEEFGSPQVPSFQNVGGQVDGSVFKIVPLSEEKYRRLYVIQQQIIDRELQLGGLNPRMERLANDFYQMGHSMRPMLDFNVIRRFCGLAIDRRKSIAQKAGRHAHFEAWRDIINIEFSMRSLCQGK
B3: Pfs2 (native CPF subunit) (protein, UniProt P42841 1-465)
chain: MDGHNQNQYQNQNQIQQSQQPPLKKYVTQRRSVDVSSPYINLYYNRRHGLPNLVVEPETSYTIDIMPPNAYRGRDRVINLPSKFTHLSSNKVKHVIPAIQWTPEGRRLVVATYSGEFSLWNASSFTFETLMQAHDSAVTTMKYSHDSDWMISGDADGMIKIWQPNFSMVKEIDAAHTESIRDMAFSSNDSKFVTCSDDNILKIWNFSNGKQERVLSGHHWDVKSCDWHPEMGLIASASKDNLVKLWDPRSGNCISSILKFKHTVLKTRFQPTKGNLLMAISKDKSCRVFDIRYSMKELMCVRDETDYMTLEWHPINESMFTLACYDGSLKHFDLLQNLNEPILTIPYAHDKCITSLSYNPVGHIFATAAKDRTIRFWTRARPIDPNAYDDPTYNNKKINGWFFGINNDINAVREKSEFGAAPPPPATLEPHALPNMNGFINKKPRQEIPGIDSNIKSSTLPGLSI
B4: Fip1 (native CPF subunit) (protein, UniProt P45976 1-327)
chain: MSSSEDEDDKFLYGSDSELALPSSKRSRDDEADAGASSNPDIVKRQKFDSPVEETPATARDDRSDEDIYSDSSDDDSDSDLEVIISLGPDPTRLDAKLLDSYSTAATSSSKDVISVATDVSNTITKTSDERLITEGEANQGVTATTVKATESDGNVPKAMTGSIDLDKEGIFDSVGITTIDPEVLKEKPWRQPGANLSDYFNYGFNEFTWMEYLHRQEKLQQDYNPRRILMGLLSLQQQGKLNSANDTDSNLGNIIDNNNNVNNANMSNLNSNMGNSMSGTPNPPAPPMHPSFPPLPMFGSFPPFPMPGMMPPMNQQPNQNQNQNSK
B5: Yth1 (native CPF subunit) (protein, UniProt Q06102 1-208)
chain: MSLIHPDTAKYPFKFEPFLRQEYSFSLDPDRPICEFYNSREGPKSCPRGPLCPKKHVLPIFQNKIVCRHWLRGLCKKNDQCEYLHEYNLRKMPECVFFSKNGYCTQSPDCQYLHIDPASKIPKCENYEMGFCPLGSSCPRRHIKKVFCQRYMTGFCPLGKDECDMEHPQFIIPDEGSKLRIKRDDEINTRKMDEEKERRLNAIINGEV
B6: Cft2 (native CPF subunit) (protein, UniProt Q12102 1-859)
chain: MTYKYNCCDDGSGTTVGSVVRFDNVTLLIDPGWNPSKVSYEQCIKYWEKVIPEIDVIILSQPTIECLGAHSLLYYNFTSHFISRIQVYATLPVINLGRVSTIDSYASAGVIGPYDTNKLDLEDIEISFDHIVPLKYSQLVDLRSRYDGLTLLAYNAGVCPGGSIWCISTYSEKLVYAKRWNHTRDNILNAASILDATGKPLSTLMRPSAIITTLDRFGSSQPFKKRSKIFKDTLKKGLSSDGSVIIPVDMSGKFLDLFTQVHELLFESTKINAHTQVPVLILSYARGRTLTYAKSMLEWLSPSLLKTWENRNNTSPFEIGSRIKIIAPNELSKYPGSKICFVSEVGALINEVIIKVGNSEKTTLILTKPSFECASSLDKILEIVEQDERNWKTFPEDGKSFLCDNYISIDTIKEEPLSKEETEAFKVQLKEKKRDRNKKILLVKRESKKLANGNAIIDDTNGERAMRNQDILVENVNGVPPIDHIMGGDEDDDEEEENDNLLNLLKDNSEKSAAKKNTEVPVDIIIQPSAASKHKMFPFNPAKIKKDDYGTVVDFTMFLPDDSDNVNQNSRKRPLKDGAKTTSPVNEEDNKNEEEDGYNMSDPISKRSKHRASRYSGFSGTGEAENFDNLDYLKIDKTLSKRTISTVNVQLKCSVVILNLQSLVDQRSASIIWPSLKSRKIVLSAPKQIQNEEITAKLIKKNIEVVNMPLNKIVEFSTTIKTLDISIDSNLDNLLKWQRISDSYTVATVVGRLVKESLPQVNNHQKTASRSKLVLKPLHGSSRSHKTGALSIGDVRLAQLKKLLTEKNYIAEFKGEGTLVINEKVAVRKINDAETIIDGTPSELFDTVKKLVTDMLAKI
B7: Mpe1 (native CPF subunit) (protein, UniProt P35728 1-441)
chain: MSSTIFYRFKSQRNTSRILFDGTGLTVFDLKREIIQENKLGDGTDFQLKIYNPDTEEEYDDDAFVIPRSTSVIVKRSPAIKSFSVHSRLKGNVGAAALGNATRYVTGRPRVLQKRQHTATTTANVSGTTEEERIASMFATQENQWEQTQEEMSAATPVFFKSQTNKNSAQENEGPPPPGYMCYRCGGRDHWIKNCPTNSDPNFEGKRIRRTTGIPKKFLKSIEIDPETMTPEEMAQRKIMITDEGKFVVQVEDKQSWEDYQRKRENRQIDGDETIWRKGHFKDLPDDLKCPLTGGLLRQPVKTSKCCNIDFSKEALENALVESDFVCPNCETRDILLDSLVPDQDKEKEVETFLKKQEELHGSSKDGNQPETKKMKLMDPTGTAGLNNNTSLPTSVNNGGTPVPPVPLPFGIPPFPMFPMPFMPPTATITNPHQADASPKK
B8: Pta1 (native CPF/APT subunit) (protein, UniProt Q01329 1-785)
chain: MSSAEMEQLLQAKTLAMHNNPTEMLPKVLETTASMYHNGNLSKLKLPLAKFFTQLVLDVVSMDSPIANTERPFIAAQYLPLLLAMAQSTADVLVYKNIVLIMCASYPLVLDLVAKTSNQEMFDQLCMLKKFVLSHWRTAYPLRATVDDETDVEQWLAQIDQNIGVKLATIKFISEVVLSQTKSPSGNEINSSTIPDNHPVLNKPALESEAKRLLDMLLNYLIEEQYMVSSVFIGIINSLSFVIKRRPQTTIRILSGLLRFNVDAKFPLEGKSDLNYKLSKRFVERAYKNFVQFGLKNQIITKSLSSGSGSSIYSKLTKISQTLHVIGEETKSKGILNFDPSKGNSKKTLSRQDKLKYISLWKRQLSALLSTLGVSTKTPTPVSAPATGSSTENMLDQLKILQKYTLNKASHQGNTFFNNSPKPISNTYSSVYSLMNSSNSNQDVTQLPNDILIKLSTEAILQMDSTKLITGLSIVASRYTDLMNTYINSVPSSSSSKRKSDDDDDGNDNEEVGNDGPTANSKKIKMETEPLAEEPEEPEDDDRMQKMLQEEESAQEISGDANKSTSAIKEIAPPFEPDSLTQDEKLKYLSKLTKKLFELSGRQDTTRAKSSSSSSILLDDDDSSSWLHVLIRLVTRGIEAQEASDLIREELLGFFIQDFEQRVSLIIEWLNEEWFFQTSLHQDPSNYKKWSLRVLESLGPFLENKHRRFFIRLMSELPSLQSDHLEALKPICLDPARSSLGFQTLKFLIMFRPPVQDTVRDLLHQLKQEDEGLHKQCDSLLDRLK

Each binder was assayed against T1, Ref2, TAPS-tagged (native CPF/APT subunit) (yeast) (assay: affinity purification with mass spectrometry; native CPF/APT purified by a tandem affinity purification tag from a yeast strain containing TAPS-tagged Ref2; Coomassie SDS-PAGE; composition analysed by noncovalent nanoESI-MS).

binding, binds:
B1
B2
B3
B4
B5
B6
B7
B8
